Our source for the survivor count and T/C values is PubChem BioAssay AID330 (DTP/NCI, 2004).

The structures appear in SMILES notation. The list does not hold the whole screen: it is rich in T/C values a quarter to a half above the control, in often repeated tests (any T/C) and in doses without a T/C. Further doses and runs are listed elsewhere. T/C: endpoint of the treated group in % of that of the vehicle group. Some entries give survivors of the animals treated and no T/C: the source holds a T/C of zero for them, seemingly a mark for toxic or unscored doses. Some survivor counts are full or nearly so, which does not show that the dose was tolerated: the source hardly ever lists a survival T/C far under the control, and the zero likely stands for such cases as well. Counts of survivors are from the toxicity check (mostly the fifth day) where no day follows; animals may have died later. Schedule codes are those of the source, read here as Q, the interval in days (D) or hours (H), X, the number of doses. Where survival is the endpoint, this PubChem deposit counts one and a half times the control or more as active, and values a quarter to a half above the control carry no call in these data; other NCI protocols may use other cut-offs. Some entries hold several experiments; the values are given in rising order. Some T/C values carry the count of animals alive at the toxicity check (mostly the fifth day); without a count, all were alive then.

The assay has as its system P388 leukemia ip, CD2F1 mice, survival T/C. Description: NCI In Vivo Anticancer Drug Screen. Data for tumor model P388 Leukemia (intraperitoneal) in CD2F1 (CDF1) mice. Particulars: T/C endpoint: median survival time, higher T/C = longer survival.
The mark [1] stands for this setting: dose: 200.0 mg/kg/injection, schedule: Q01DX005 (ip), vehicle: Klucel (hydroxypropylcellulose) (HPC).
Setting [2] is: dose: 100.0 mg/kg/injection, schedule: Q01DX005 (ip), vehicle: saline with Tween-80.
The mark [3] stands for this setting: dose: 200.0 mg/kg/injection, schedule: Q01DX005 (ip), vehicle: saline with Tween-80.
The mark [4] stands for this setting: dose: 240.0 mg/kg/injection, schedule: Q01DX005 (ip), vehicle: Klucel (hydroxypropylcellulose) (HPC).
[5] abbreviates: dose: 200.0 mg/kg/injection, schedule: Q01DX009 (ip), vehicle: saline with Tween-80.
The mark [6] stands for this setting: dose: 100.0 mg/kg/injection, schedule: Q01DX005 (ip), vehicle: Klucel (hydroxypropylcellulose) (HPC).
Where [7] appears, read: dose: 240.0 mg/kg/injection, schedule: Q01DX005 (ip), vehicle: saline with Tween-80.
[8] abbreviates: dose: 120.0 mg/kg/injection, schedule: Q01DX005 (ip), vehicle: saline with Tween-80.
[9] abbreviates: dose: 100.0 mg/kg/injection, schedule: Q01DX009 (ip), vehicle: saline.
The mark [10] stands for this setting: dose: 200.0 mg/kg/injection, schedule: Q01DX009 (ip), vehicle: saline.
Setting [11] is: dose: 50.0 mg/kg/injection, schedule: Q01DX005 (ip), vehicle: saline with Tween-80.
Where [12] appears, read: dose: 400.0 mg/kg/injection, schedule: Q01DX001 (ip), vehicle: Klucel (hydroxypropylcellulose) (HPC).
The mark [13] stands for this setting: dose: 200.0 mg/kg/injection, schedule: Q04DX003 (ip), vehicle: saline with Tween-80.

On to `O=Nc1sc(=S)n(N2CCCCC2)c1O`, for which the survivor count under setting [1] is 4 of 6.

Turning to `CNCCCN1c2ccccc2CCc2ccccc21`, the survivor count was 0 of 6 under setting [2] and 0 of 6 under setting [3].

Regarding `Cc1cccc(Cl)c1NC(=O)CSCCN(C)C`, the survivor count under setting [4] is 0 of 6.

`Brc1nc(Br)c(Br)[nH]1`: the survivor count is, setting by setting: (dose: 25.0 mg/kg/injection, schedule: Q01DX009 (ip), vehicle: saline sonified) 4 of 6; (dose: 100.0 mg/kg/injection, schedule: Q01DX009 (ip), vehicle: saline sonified) 1 of 6.

Take `CS(=O)(=O)Nc1ccc(NC(=O)c2c3ccccc3nc3ccccc23)cc1`: the survivor count reads like this: under setting [2], 1 of 6; under setting [3], 0 of 6.

Consider `C=CS(=O)(=O)c1ccc(Nc2cc(S(=O)(=O)O)c(N)c3c2C(=O)c2ccccc2C3=O)cc1`, for which the T/C under setting [5] was 132 % of control.

In the case of `CN(C)CC(CN(C)C)C(=O)/C=C/c1ccc(OCc2ccccc2)cc1`, the survivor count reads like this: (dose: 25.0 mg/kg/injection, schedule: Q01DX005 (ip), vehicle: saline) 0 of 6; (dose: 50.0 mg/kg/injection, schedule: Q01DX005 (ip), vehicle: saline) 0 of 6; (dose: 100.0 mg/kg/injection, schedule: Q01DX005 (ip), vehicle: saline) 0 of 6; (dose: 200.0 mg/kg/injection, schedule: Q01DX005 (ip), vehicle: saline) 0 of 6.

As for `CN(C)C(=S)SSC(=S)N(C)C`, the survivor count is 2 of 6 (dose: 200.0 mg/kg/injection, schedule: Q01DX009 (ip), vehicle: Klucel (hydroxypropylcellulose) (HPC)) and 0 of 6 (dose: 400.0 mg/kg/injection, schedule: Q01DX009 (ip), vehicle: Klucel (hydroxypropylcellulose) (HPC)).

As for `CC(C)N(C(C)C)P1N(C(C)(C)C)N=NN1C(C)(C)C`, the survivor count runs as follows: under setting [6], 2 of 6; under setting [1], 0 of 6.

Regarding `CC1(C)c2ccccc2N2C(c3ccccc3)=NN(c3ccccc3)C21C` (configuration not stated), the survivor count under setting [7] is 6 of 6.

Take `O=C1OC(=O)C2C1C1c3ccccc3C2(O)c2ccccc21` (configuration not stated): the survivor count is 3 of 6 under setting [8] and 1 of 6 under setting [7].

For the compound `C=CCN(CC=C)C(N)=Nc1ccc(Cl)cc1`, the survivor count was 0 of 6 (dose: 50.0 mg/kg/injection, schedule: Q01DX009 (ip), vehicle: saline); 0 of 6 under setting [9]; 0 of 6 under setting [10].

Take `Cc1ccc(-n2cnc3c(N)nc(N)nc32)cc1`: the survivor count is, setting by setting: (dose: 25.0 mg/kg/injection, schedule: Q01DX005 (ip), vehicle: saline with Tween-80) 0 of 6; under setting [11], 0 of 5; under setting [2], 0 of 5; under setting [3], 0 of 5.

On to `COc1cc([C@@H]2c3cc4c(c(O)c3C[C@H]3COC(=O)[C@@H]32)OCO4)cc(OC)c1OC`, for which the T/C by setting is: (dose: 0.5 mg/kg/injection, schedule: Q01DX009 (ip), vehicle: suspension in saline) 129 % of control; (dose: 1.0 mg/kg/injection, schedule: Q01DX009 (ip), vehicle: saline) 126 % of control; (dose: 1.0 mg/kg/injection, schedule: Q01DX009 (ip), vehicle: suspension in saline) 142 % of control; (dose: 2.0 mg/kg/injection, schedule: Q01DX009 (ip), vehicle: saline) 146 % of control; (dose: 2.0 mg/kg/injection, schedule: Q01DX009 (ip), vehicle: suspension in saline) 148 % of control; (dose: 4.0 mg/kg/injection, schedule: Q01DX009 (ip), vehicle: saline) 146 % of control. Moreover, where the note is “dose: 4.0 mg/kg/injection, schedule: Q01DX009 (ip), vehicle: suspension in saline”, the survivor count is on record as 5 of 6.

Consider `O=c1ccc(=O)n(-c2ccccc2)[nH]1`, for which the survivor count is 2 of 6 (dose: 50.0 mg/kg/injection, schedule: Q01DX009 (ip), vehicle: saline with Tween-80); 0 of 6 (dose: 100.0 mg/kg/injection, schedule: Q01DX009 (ip), vehicle: saline with Tween-80); 0 of 6 under setting [5]; 0 of 6 (dose: 400.0 mg/kg/injection, schedule: Q01DX009 (ip), vehicle: saline with Tween-80).

As to `Cc1cccc(-n2c(C)nc3c(c(C)c(C)n3-c3ccccc3)c2=N)c1`, the survivor count is reported as 2 of 6 (dose: 50.0 mg/kg/injection, schedule: Q01DX005 (ip), vehicle: Klucel (hydroxypropylcellulose) (HPC)); 0 of 6 under setting [6]; 0 of 6 under setting [1].

For `COc1c2ccccc2c(C)c2ccc3ccccc3c12`, the survivor count under setting [12] is 6 of 6.

On to `COc1ccc(SSc2ccc(OC)n[n+]2[O-])[n+]([O-])n1`, for which the survivor count under setting [12] was 1 of 6.

For `O=C(CCN1C(=O)c2ccccc2C1=O)C(O)CCN1C(=O)c2ccccc2C1=O` (configuration not stated), the survivor count runs as follows: under setting [11], 6 of 6; under setting [2], 6 of 6.

Turning to `COC1C(/C=C/C(C)=O)OC2OC(C)(C)OC21` (configuration not stated), the T/C under setting [9] was 125 and 132 % of control. Further, the survivor count under setting [10] was 2 of 6.

For `COc1cc(/C=N/Nc2ccc([N+](=O)[O-])cc2)cc(OC)c1OC`, under setting [13], the survivor count was 6 of 6.

Consider `CN(C)C1C[C@@H](O[Si](C)(C)C(C)(C)C)C=C1S(=O)(=O)c1ccccc1` (some centres not stated), for which the survivor count is 0 of 6 (dose: 120.0 mg/kg/injection, schedule: Q01DX005 (ip), vehicle: Klucel (hydroxypropylcellulose) (HPC)) and 0 of 6 under setting [4].

`COC1OCN(Cc2ccccc2)CC1(C)C` (configuration not stated): under setting [5], the survivor count is recorded as 6 of 6.

Turning to `Cc1cc2cc3c(=O)[nH]c(=O)nc-3n(CC(O)C(O)C(O)CO)c2cc1C` (configuration not stated), the survivor count by setting is: under setting [8], 6 of 6; under setting [7], 6 of 6.

Turning to `CCN(CCP(c1ccccc1)c1ccccc1)CCP(c1ccccc1)c1ccccc1`, the T/C is 136 % of control (dose: 3.0 mg/kg/injection, schedule: Q01DX009 (ip), vehicle: saline with Tween-80); 140 % of control (dose: 6.0 mg/kg/injection, schedule: Q01DX009 (ip), vehicle: saline with Tween-80); 136 % of control (dose: 12.0 mg/kg/injection, schedule: Q01DX009 (ip), vehicle: saline with Tween-80); 127 % of control (dose: 12.5 mg/kg/injection, schedule: Q04DX003 (ip), vehicle: saline with Tween-80); 130 % of control (dose: 25.0 mg/kg/injection, schedule: Q04DX003 (ip), vehicle: saline with Tween-80); 140 % of control (dose: 50.0 mg/kg/injection, schedule: Q04DX003 (ip), vehicle: saline with Tween-80). Also, the T/C was 125 % of control [5 of 6 alive] (dose: 66.0 mg/kg/injection, schedule: Q04DX003 (ip), vehicle: saline with Tween-80) and 130 % of control [5 of 6 alive] (dose: 100.0 mg/kg/injection, schedule: Q04DX003 (ip), vehicle: saline with Tween-80). Also, the survivor count is 4 of 6 (dose: 150.0 mg/kg/injection, schedule: Q04DX003 (ip), vehicle: saline with Tween-80); 4 of 6 under setting [13]; 1 of 6 (dose: 400.0 mg/kg/injection, schedule: Q04DX003 (ip), vehicle: saline with Tween-80).

Turning to `C/C=C/C(C#N)O[Si](C)(C)C` (configuration not stated), the survivor count is reported as 0 of 6 (dose: 60.0 mg/kg/injection, schedule: Q01DX005 (ip), vehicle: saline); 0 of 6 (dose: 120.0 mg/kg/injection, schedule: Q01DX005 (ip), vehicle: saline); 0 of 6 (dose: 240.0 mg/kg/injection, schedule: Q01DX005 (ip), vehicle: saline).
